Experimental data as given in publication PMC8118623.

B1: SMC6 (protein, UniProt Q96SB8 1-1091)
chain: MAKRKEENFSSPKNAKRPRQEELEDFDKDGDEDECKGTTLTAAEVGIIESIHLKNFMCHSMLGPFKFGSNVNFVVGNNGSGKSAVLTALIVGLGGRAVATNRGSSLKGFVKDGQNSADISITLRNRGDDAFKASVYGNSILIQQHISIDGSRSYKLKSATGSVVSTRKEELIAILDHFNIQVDNPVSVLTQEMSKQFLQSKNEGDKYKFFMKATQLEQMKEDYSYIMETKERTKEQIHQGEERLTELKRQCVEKEERFQSIAGLSTMKTNLESLKHEMAWAVVNEIEKQLNAIRDNIKIGEDRAARLDRKMEEQQVRLNEAEQKYKDIQDKLEKISEETNARAPECMALKADVVAKKRAYNEAEVLYNRSLNEYKALKKDDEQLCKRIEELKKSTDQSLEPERLERQKKISWLKERVKAFQNQENSVNQEIEQFQQAIEKDKEEHGKIKREELDVKHALSYNQRQLKELKDSKTDRLKRFGPNVPALLEAIDDAYRQGHFTYKPVGPLGACIHLRDPELALAIESCLKGLLQAYCCHNHADERVLQALMKRFYLPGTSRPPIIVSEFRNEIYDVRHRAAYHPDFPTVLTALEIDNAVVANSLIDMRGIETVLLIKNNSVARAVMQSQKPPKNCREAFTADGDQVFAGRYYSSENTRPKFLSRDVDSEISDLENEVENKTAQILNLQQHLSALEKDIKHNEELLKRCQLHYKELKMKIRKNISEIRELENIEEHQSVDIATLEDEAQENKSKMKMVEEHMEQQKENMEHLKSLKIEAENKYDAIKFKINQLSELADPLKDELNLADSEVDNQKRGKRHYEEKQKEHLDTLNKKKRELDMKEKELEEKMSQARQICPERIEVEKSASILDKEINRLRQKIQAEHASHGDREEIMRQYQEARETYLDLDSKVRTLKKFIKLLGEIMEHRFKTYQQFRRCLTLRCKLYFDNLLSQRAYCGKMNFDHKNETLSISVQPGEGNKAAFNDMRALSGGERSFSTVCFILSLWSIAESPFRCLDEFDVYMDMVNRRIAMDLILKMADSQRFRQFILLTPQSMSSLPSSKLIRILRMSDPERGQTTLPFRPVTQEEDDDQR
B2: NSMCE1 (protein, UniProt Q8WV22 1-266)
chain: MQGSTRRMGVMTDVHRRFLQLLMTHGVLEEWDVKRLQTHCYKVHDRNATVDKLEDFINNINSVLESLYIEIKRGVTEDDGRPIYALVNLATTSISKMATDFAENELDLFRKALELIIDSETGFASSTNILNLVDQLKGKKMRKKEAEQVLQKFVQNKWLIEKEGEFTLHGRAILEMEQYIRETYPDAVKICNICHSLLIQGQSCETCGIRMHLPCVAKYFQSNAEPRCPHCNDYWPHEIPKVFDPEKERESGVLKSNKKSLRSRQH
B3: NSMCE2 (protein, UniProt Q96MF7 1-247)
chain: MPGRSSSNSGSTGFISFSGVESALSSLKNFQACINSGMDTASSVALDLVESQTEVSSEYSMDKAMVEFATLDRQLNHYVKAVQSTINHVKEERPEKIPDLKLLVEKKFLALQSKNSDADFQNNEKFVQFKQQLKELKKQCGLQADREADGTEGVDEDIIVTQSQTNFTCPITKEEMKKPVKNKVCGHTYEEDAIVRMIESRQKRKKKAYCPQIGCSHTDIRKSDLIQDEALRRAIENHNKKRHRHSE
B4: NSMCE3 (protein, UniProt Q96MG7 1-304)
chain: MLQKPRNRGRSGGQAERDRDWSHSGNPGASRAGEDARVLRDGFAEEAPSTSRGPGGSQGSQGPSPQGARRAQAAPAVGPRSQKQLELKVSELVQFLLIKDQKKIPIKRADILKHVIGDYKDIFPDLFKRAAERLQYVFGYKLVELEPKSNTYILINTLEPVEEDAEMRGDQGTPTTGLLMIVLGLIFMKGNTIKETEAWDFLRRLGVYPTKKHLIFGDPKKLITEDFVRQRYLEYRRIPHTDPVDYEFQWGPRTNLETSKMKVLKFVAKVHNQDPKDWPAQYCEALADEENRARPQPSGPAPSS
B5: NSMCE4A (protein, UniProt Q9NXX6 1-385)
chain: MSGDSSGRGPEGRGRGRDPHRDRTRSRSRSRSPLSPRSRRGSARERREAPERPSLEDTEPSDSGDEMMDPASLEAEADQGLCRQIRHQYRALINSVQQNREDILNAGDKLTEVLEEANTLFNEVSRAREAVLDAHFLVLASDLGKEKAKQLRSDLSSFDMLRYVETLLTHMGVNPLEAEELIRDEDSPDFEFIVYDSWKITGRTAENTFNKTHTFHFLLGSIYGECPVPKPRVDRPRKVPVIQEERAMPAQLRRMEESHQEATEKEVERILGLLQTYFREDPDTPMSFFDFVVDPHSFPRTVENIFHVSFIIRDGFARIRLDQDRLPVIEPVSINEENEGFEHNTQVRNQGIIALSYRDWEEIVKTFEISEPVITPSQRQQKPSA
B6: SLF1 (protein, UniProt Q9BQI6 1-1058)
chain: MEDGTPKHIIQMTGFKMEEKEALVKLLLKLDCTFIKSEKYKNCTHLIAERLCKSEKFLAACAAGKWILTKDYIIHSAKSGRWLDETTYEWGYKIEKDSRYSPQMQSAPKRWREELKRTGAPGAFHRWKVVLLVRTDKRSDSLIRVLEAGKANVILPKSSPSGITHVIASNARIKAEKEKDNFKAPFYPIQYLGDFLLEKEIQNDEDSQTNSVWTEHSNEETNKDFRKDAGFLEMKGALRETMYRTQKEMQNHEDVNVGSILIQHHKKEKFSGSSKDLKFVKMRNTFGSHTYENQKEIKKKDEDIQRSYTLRRKRKKGKESNCKKGVEHEKIKSTLRRHIYNRDQKEMKNSIFAEYAKESKAMAIKTDVDVVEIKNTLRKHIYRAQAVRYNCIRIDKQPVYNVEVKNAEFPRGVLNLIESLIEGHFFKEAIEELSTLQAHYIPPVCVLHALLENVLQDNIDTFSGRYFHILSALLHLHPPWKSPAMSRYYLELFQCPTCMKGAWSLVEVLIRSCLFNESFCHQISENIGSKVLHLTLLKFFFNLIESEVQHLSQKLYDWSDSQNLKITGKAMLLEIFWSGSETSGLLTKPVNMLLEWTIYSHKEKFKSNDVFKHELAYLLAGILGAAIDYWIFLGLKMGRNVMRHMSDDLGSYVSLSCDDFSSQELEIFICSFSSSWLQMFVAEAVFKKLCLQSSGSVSSEPLSLQKMVYSYLPALGKTGVLGSGKIQVSKKIGQRPCFDSQRTLLMLNGTKQKQVEGLPELLDLNLAKCSSSLKKLKKKSEGELSCSKENCPSVVKKMNFHKTNLKGETALHRACINNQVEKLILLLSLPGIDINVKDNAGWTPLHEACNYGNTVCVQEILQRCPEVDLLTQVDGVTPLHDALSNGHVEIGKLLLQHGGPVLLQQRNAKGELPLDYVVSPQIKEELFAITKIEDTVENFHAQAEKHFHYQQLEFGSFLLSRMLLNFCSIFDLSSEFILASKGLTHLNELLMACKSHKETTSVHTDWLLDLYAGNIKTLQKLPHILKELPENLKVCPGVHTEALMITLEMMCRSVMEFS

Molecular target: SMC5-SMC6 complex localization factor 2 (SLF2), endogenous (human (endogenous in Jurkat and CEM-T4))
Assay: affinity purification with mass spectrometry; endogenous SLF2 immunoprecipitated (1 ug anti-SLF2, protein A-sepharose) from nuclei of WT versus SLF2-knockout Jurkat T cells; nuclei lysed in 1% IGEPAL, TBS with benzonase; IP buffer 0.5% IGEPAL, 1xTBS, 4°C; interactors undetected in SLF2-KO IP and with >=3 peptides in WT IP

| Binder | binding |
| --- | --- |
| B1 | binds |
| B2 | binds |
| B3 | binds |
| B4 | binds |
| B5 | binds |
| B6 | binds |

Results are given in words; binding and its absence hold for the method and conditions named. In cells and extracts the contact can be indirect. These calls come from enrichment with a bait or labelling near it, and not all partners need be listed.
